Laboratory results from US8389481B2, “Glutamate-enhanced cell-penetrating peptides and methods of using same” (University of Medicine and Dentistry of New Jersey, priority 2008, dated 2013).
Some entries share one result that the patent states for a list of compounds.

Test system: DU-145 cells
Assay: Peptide uptake by live cells, flow cytometry (geometric MFI)
Type: cell-based
Conditions: 300 nM peptides, 4° C., 4 hours (FIG. 2)
Protocol: Uptake of peptides by live cells was compared by flow cytometry, using the exclusion dye 7-amino actinomycin D (7-AAD) to exclude dead cells from analyses.
Cells: DU-145 and LNCaP cells were the gift of Dr. James Turkson (University of South Florida, Tampa, Fla.). DU-145 cells were grown in DMEM/Ham's F12 (Invitrogen, Carlsbad, Calif.) plus 10% newborn bovine serum (Hyclone, Logan, Utah). LNCaP cells were maintained in RPMI-1640 (Invitrogen) plus fetal bovine serum (Hyclone). Cell viabilities were determined using fluorescein diacetate (Sigma Chemical Co., St. Louis, Mo.) and a Universal RIII fluorescence microscope (Zeiss, Jena, Germany).
Uptake and Fluorescence Quantification Studies: Peptides were added to subconfluent cultures of cells at times, temperatures, and concentrations indicated in experiments. Concentrations ranging from 0 to 3000 nM were assayed. Cells were analyzed in the presence of […] 7-AAD (eBioscience, San Digeo Calif.) to gate on live events. Fluorescence was quantified, after cells were harvested, using a FACScan flow cytometer. […] Fluorescence detectors on the instrument were standardized prior to each acquisition run, so that fluorescence intensities from different days could be compared. […] In some studies, fixed cells (4% paraformaldehyde/DPBS) were analyzed on an Amnis ImageStream 200 imaging cytometer using IDEAS 3.0 software.

## EEE-FITC [Peptide 350]
  average geometric MFI: < 100

## EEEAA-FITC (carboxyfluorescein label; Synthetically produced Glu peptide (Peptide 351))
  average geometric MFI: < 100
